# The supplement of paper PMC7666118
# By UniProt entry, the sequences of proteins in these tests, tags left out. Where a name states a change or a piece, a line headed by the entry shows the natural chain unless it says otherwise.
# UniProt A1L0T0: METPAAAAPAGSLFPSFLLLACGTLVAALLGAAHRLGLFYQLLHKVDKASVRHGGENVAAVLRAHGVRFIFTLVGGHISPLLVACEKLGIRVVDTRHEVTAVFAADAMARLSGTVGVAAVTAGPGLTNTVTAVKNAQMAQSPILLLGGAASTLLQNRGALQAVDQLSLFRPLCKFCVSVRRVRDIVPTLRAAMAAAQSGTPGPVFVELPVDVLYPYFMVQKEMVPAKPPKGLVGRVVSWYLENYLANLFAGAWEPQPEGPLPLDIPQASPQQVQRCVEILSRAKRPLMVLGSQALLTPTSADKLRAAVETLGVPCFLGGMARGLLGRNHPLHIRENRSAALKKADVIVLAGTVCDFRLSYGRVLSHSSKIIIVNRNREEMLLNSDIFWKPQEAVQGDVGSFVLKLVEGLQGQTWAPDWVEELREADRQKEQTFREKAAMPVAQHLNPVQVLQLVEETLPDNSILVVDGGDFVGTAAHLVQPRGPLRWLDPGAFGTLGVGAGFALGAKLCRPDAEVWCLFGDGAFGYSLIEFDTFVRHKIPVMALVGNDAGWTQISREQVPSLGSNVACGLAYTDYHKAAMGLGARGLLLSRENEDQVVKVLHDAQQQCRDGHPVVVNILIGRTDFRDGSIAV
# UniProt P06756, whole entry: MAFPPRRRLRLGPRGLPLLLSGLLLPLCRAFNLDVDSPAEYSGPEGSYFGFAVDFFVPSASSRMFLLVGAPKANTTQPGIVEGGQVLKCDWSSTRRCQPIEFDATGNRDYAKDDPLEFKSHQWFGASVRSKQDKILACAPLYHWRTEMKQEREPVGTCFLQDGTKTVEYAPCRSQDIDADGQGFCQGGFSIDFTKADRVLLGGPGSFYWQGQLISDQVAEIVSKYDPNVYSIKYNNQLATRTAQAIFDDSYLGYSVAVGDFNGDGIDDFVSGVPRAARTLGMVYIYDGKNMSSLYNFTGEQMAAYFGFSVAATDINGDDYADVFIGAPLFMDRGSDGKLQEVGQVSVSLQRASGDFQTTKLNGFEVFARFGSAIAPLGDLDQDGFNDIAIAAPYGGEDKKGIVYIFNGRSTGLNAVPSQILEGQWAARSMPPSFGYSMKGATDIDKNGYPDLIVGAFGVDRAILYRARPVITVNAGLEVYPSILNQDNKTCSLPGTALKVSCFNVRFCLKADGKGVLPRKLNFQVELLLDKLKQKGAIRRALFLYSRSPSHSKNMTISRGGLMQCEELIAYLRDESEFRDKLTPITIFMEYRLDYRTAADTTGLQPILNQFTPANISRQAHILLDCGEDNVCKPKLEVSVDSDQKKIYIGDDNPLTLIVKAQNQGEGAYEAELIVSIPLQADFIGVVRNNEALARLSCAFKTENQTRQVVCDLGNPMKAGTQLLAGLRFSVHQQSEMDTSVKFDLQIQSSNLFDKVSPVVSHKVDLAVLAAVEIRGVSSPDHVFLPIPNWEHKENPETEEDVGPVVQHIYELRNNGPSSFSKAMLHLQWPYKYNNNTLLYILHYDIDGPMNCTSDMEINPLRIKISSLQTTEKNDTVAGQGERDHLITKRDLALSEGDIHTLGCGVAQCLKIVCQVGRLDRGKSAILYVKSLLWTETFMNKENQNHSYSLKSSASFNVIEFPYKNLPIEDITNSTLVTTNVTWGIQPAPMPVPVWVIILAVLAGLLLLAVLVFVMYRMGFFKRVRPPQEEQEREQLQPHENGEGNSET
# UniProt Q9ULR0: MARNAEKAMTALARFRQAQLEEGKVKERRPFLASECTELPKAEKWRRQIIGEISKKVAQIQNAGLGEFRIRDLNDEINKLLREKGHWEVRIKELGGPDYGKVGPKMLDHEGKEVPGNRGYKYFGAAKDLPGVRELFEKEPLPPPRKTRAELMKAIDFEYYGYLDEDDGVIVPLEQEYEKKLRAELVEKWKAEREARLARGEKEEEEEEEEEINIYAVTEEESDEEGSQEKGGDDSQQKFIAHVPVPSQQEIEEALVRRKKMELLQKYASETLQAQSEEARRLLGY
# UniProt Q13155: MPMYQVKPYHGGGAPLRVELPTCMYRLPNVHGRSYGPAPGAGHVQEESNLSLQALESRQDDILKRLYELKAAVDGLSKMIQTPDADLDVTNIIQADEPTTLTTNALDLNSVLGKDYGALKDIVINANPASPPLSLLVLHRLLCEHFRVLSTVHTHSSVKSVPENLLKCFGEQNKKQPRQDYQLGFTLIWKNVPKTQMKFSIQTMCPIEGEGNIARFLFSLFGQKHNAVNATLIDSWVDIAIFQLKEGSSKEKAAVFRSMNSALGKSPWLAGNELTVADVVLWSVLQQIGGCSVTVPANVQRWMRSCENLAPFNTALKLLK
# UniProt O15066: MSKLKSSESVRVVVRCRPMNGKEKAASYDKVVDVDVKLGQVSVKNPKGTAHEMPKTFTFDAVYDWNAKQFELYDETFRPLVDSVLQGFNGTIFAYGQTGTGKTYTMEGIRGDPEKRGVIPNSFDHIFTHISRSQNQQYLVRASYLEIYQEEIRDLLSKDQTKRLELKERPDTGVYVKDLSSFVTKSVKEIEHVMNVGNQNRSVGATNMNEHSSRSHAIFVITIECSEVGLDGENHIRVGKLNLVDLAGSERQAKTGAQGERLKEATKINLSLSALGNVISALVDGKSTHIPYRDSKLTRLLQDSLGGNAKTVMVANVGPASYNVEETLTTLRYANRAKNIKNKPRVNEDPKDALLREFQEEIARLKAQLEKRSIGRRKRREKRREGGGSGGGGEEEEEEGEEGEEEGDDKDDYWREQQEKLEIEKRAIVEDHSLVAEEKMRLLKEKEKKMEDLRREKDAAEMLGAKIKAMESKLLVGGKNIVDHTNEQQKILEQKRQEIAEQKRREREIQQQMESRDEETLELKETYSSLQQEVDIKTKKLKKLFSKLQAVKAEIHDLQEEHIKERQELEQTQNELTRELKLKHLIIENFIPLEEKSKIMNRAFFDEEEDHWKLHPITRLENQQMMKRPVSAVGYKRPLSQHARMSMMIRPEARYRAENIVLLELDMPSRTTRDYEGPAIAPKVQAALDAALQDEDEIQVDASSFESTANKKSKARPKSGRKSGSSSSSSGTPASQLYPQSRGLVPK
# UniProt Q9P2X3: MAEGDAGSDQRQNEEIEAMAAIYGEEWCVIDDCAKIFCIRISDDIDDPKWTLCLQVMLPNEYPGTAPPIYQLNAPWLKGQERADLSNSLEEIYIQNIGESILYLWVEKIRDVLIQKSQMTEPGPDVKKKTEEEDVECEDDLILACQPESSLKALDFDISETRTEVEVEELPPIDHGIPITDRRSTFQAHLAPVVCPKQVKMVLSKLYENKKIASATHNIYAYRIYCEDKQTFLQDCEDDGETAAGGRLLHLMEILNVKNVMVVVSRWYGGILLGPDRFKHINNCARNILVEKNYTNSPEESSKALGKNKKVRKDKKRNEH
# UniProt Q13478: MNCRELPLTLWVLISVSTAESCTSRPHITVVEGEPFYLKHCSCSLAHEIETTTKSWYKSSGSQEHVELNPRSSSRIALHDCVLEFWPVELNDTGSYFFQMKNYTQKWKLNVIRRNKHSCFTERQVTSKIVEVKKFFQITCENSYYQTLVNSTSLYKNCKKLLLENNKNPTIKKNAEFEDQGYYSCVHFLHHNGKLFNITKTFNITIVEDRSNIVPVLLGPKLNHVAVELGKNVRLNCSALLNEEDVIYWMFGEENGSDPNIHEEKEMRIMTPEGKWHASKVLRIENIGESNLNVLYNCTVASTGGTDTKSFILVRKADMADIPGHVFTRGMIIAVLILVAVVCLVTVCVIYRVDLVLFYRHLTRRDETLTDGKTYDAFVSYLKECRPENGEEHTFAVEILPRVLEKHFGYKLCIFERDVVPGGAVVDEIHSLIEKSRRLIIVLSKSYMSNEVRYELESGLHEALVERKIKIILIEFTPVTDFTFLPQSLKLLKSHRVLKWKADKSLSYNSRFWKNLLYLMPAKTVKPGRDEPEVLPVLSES
# UniProt P35475: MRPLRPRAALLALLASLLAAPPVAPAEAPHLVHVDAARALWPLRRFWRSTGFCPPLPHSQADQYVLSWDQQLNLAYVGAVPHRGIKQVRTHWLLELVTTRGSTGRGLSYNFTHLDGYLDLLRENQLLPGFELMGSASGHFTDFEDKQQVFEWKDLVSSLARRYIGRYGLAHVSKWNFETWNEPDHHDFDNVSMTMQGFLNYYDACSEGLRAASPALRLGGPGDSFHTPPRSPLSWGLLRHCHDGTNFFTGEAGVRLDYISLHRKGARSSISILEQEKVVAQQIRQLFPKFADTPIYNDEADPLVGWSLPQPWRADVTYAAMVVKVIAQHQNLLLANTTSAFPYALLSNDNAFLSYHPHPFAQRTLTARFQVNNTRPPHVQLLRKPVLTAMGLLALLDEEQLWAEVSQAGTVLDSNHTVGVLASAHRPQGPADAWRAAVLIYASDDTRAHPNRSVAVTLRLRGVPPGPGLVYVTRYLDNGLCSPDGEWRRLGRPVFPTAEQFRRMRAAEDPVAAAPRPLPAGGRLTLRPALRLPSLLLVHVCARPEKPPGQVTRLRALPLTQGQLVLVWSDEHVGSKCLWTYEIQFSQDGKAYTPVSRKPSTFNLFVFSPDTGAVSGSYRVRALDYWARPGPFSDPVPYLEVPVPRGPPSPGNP
# UniProt Q9HCE5: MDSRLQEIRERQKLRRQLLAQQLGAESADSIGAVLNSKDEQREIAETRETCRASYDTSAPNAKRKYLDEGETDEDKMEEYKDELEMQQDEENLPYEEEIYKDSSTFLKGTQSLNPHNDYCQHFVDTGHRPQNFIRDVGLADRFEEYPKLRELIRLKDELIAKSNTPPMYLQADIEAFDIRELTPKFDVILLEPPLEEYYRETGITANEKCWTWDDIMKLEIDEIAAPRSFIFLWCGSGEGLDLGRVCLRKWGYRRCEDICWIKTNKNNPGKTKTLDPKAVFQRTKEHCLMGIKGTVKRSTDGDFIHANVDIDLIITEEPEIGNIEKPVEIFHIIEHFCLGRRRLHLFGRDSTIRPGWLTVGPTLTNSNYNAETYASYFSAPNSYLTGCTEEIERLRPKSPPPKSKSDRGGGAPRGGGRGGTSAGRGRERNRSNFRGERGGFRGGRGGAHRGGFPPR
# UniProt Q86U28: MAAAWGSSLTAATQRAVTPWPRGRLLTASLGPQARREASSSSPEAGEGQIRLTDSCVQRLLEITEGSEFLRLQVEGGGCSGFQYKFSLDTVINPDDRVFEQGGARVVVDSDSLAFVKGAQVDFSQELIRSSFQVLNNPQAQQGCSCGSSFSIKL
# UniProt Q14145, whole entry: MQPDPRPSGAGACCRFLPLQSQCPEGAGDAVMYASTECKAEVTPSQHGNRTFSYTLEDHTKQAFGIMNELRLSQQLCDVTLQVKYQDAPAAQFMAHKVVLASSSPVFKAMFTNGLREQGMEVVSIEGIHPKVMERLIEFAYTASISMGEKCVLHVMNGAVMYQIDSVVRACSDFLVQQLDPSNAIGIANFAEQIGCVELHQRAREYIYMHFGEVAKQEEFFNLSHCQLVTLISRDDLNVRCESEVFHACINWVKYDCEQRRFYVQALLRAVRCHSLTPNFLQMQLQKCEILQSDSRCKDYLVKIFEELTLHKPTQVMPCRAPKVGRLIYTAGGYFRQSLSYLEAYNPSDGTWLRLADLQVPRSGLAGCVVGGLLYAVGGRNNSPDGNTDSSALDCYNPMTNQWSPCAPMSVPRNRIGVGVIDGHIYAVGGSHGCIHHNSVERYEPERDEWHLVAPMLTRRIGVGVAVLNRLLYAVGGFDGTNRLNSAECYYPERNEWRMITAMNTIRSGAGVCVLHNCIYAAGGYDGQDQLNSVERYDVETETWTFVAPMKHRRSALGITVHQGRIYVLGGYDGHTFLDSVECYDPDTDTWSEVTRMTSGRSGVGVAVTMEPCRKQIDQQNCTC
# UniProt P18065: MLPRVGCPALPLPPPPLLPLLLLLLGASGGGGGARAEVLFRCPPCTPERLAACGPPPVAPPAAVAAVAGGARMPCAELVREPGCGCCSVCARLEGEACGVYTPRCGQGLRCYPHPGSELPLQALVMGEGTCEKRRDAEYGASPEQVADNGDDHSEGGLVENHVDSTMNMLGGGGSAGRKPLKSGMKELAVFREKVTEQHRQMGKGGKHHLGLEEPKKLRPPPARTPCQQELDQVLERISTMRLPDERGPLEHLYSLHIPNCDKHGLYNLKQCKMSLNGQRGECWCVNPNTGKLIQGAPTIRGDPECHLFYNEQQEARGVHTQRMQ
# UniProt Q14116, whole entry: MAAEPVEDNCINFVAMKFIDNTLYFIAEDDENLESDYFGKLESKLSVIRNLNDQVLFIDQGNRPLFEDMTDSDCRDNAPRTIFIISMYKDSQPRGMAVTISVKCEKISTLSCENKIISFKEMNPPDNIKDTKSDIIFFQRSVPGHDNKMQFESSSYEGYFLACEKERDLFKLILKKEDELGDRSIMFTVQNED
# UniProt P13598: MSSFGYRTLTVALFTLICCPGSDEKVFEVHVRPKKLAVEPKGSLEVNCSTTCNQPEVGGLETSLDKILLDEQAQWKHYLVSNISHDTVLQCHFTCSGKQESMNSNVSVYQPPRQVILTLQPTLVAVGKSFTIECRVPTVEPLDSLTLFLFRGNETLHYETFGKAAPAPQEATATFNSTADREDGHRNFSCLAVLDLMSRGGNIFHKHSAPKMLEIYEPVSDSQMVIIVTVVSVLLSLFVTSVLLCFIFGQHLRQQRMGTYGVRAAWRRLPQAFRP
# Some of the results follow.
# Compound: COc1ccc(Cn2ccc3cc(C)c(C(=O)NO)cc32)cc1
# Assay: dose-dependent thermal stabilisation call (2D-TPP, DLPTP, 10% FDR) (binary (1 = stabilised)); higher = stabilised by the compound
# Conditions: system: HL-60 intact cells; concentration range 0.04-10 µM
# Procedure: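 2D thermal proteome profiling in intact HL-60 cells treated with BRD-3811 (0, 0.04, 0.29, 2, 10 uM) for 90 min at 37 C, then heated 3 min at one of 12 temperatures (42-63.9 C). Soluble protein was quantified by TMT10 MS. The value is the DLPTP call of the paper: dose-dependent thermal stabilisation over all temperatures at 10% FDR (F-test of a dose-response against a flat model); one experiment, one call per tested protein.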
row,Target,dose-dependent thermal stabilisation call
1,ILVBL (UniProt A1L0T0),inactive: 0
2,KIAA1147 (UniProt A4D1U4),inactive: 0
3,ITGAV (UniProt P06756),inactive: 0
4,ITGA4 (UniProt P13612),inactive: 0
5,IDE (UniProt P14735),inactive: 0
6,ISY1 (UniProt Q9ULR0),inactive: 0
7,JTV1 (UniProt Q13155),inactive: 0
8,IL16 (UniProt Q14005),inactive: 0
9,KIF3B (UniProt O15066),inactive: 0
10,IMPACT (UniProt Q9P2X3),inactive: 0
11,IL18R1 (UniProt Q13478),inactive: 0
12,IDUA (UniProt P35475),inactive: 0
13,IRAK3 (UniProt Q9Y616),inactive: 0
14,JARID1C (UniProt P41229),inactive: 0
15,KIAA1627 (UniProt Q9HCE5),inactive: 0
16,ISCA2 (UniProt Q86U28),inactive: 0
17,ITPRIP (UniProt Q8IWB1),inactive: 0
18,KEAP1 (UniProt Q14145),inactive: 0
19,IPO11 (UniProt Q9UI26),inactive: 0
20,IGFBP2 (UniProt P18065),inactive: 0
21,KIF2C (UniProt Q99661),inactive: 0
22,IL18 (UniProt Q14116),inactive: 0
23,ICAM3 (UniProt P32942),inactive: 0
24,KCNQ5 (UniProt Q9NR82),inactive: 0
25,ICAM2 (UniProt P13598),inactive: 0
26,IL1RAP (UniProt Q9NPH3),inactive: 0
27,ITPR1 (UniProt Q14643),inactive: 0

# In a second layout: results already given.
row | Target | dose-dependent thermal stabilisation call
4 | ITGA4 (UniProt P13612) | inactive: 0
5 | IDE (UniProt P14735) | inactive: 0
